From article PMC2588654 come the findings set out here.

Chains of the proteins cited; added tags and fusions are not shown.
UniProt O08565: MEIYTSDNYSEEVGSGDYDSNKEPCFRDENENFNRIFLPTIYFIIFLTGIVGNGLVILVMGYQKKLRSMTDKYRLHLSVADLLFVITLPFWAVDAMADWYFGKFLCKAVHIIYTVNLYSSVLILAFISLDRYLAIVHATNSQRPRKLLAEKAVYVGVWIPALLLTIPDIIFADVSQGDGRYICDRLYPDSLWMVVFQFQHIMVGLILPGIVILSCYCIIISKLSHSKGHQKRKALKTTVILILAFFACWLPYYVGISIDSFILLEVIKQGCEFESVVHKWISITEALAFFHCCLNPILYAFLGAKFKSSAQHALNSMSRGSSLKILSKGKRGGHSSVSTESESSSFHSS
UniProt P30904: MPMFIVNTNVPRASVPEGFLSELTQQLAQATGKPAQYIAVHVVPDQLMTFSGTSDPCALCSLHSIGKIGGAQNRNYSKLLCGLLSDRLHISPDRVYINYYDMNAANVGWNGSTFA

The test concerns the target chemokine receptor CXCR4 (rat (endogenous in bladder)) (UniProt O08565). The experiment in a line: co-IP; CXCR4 precipitated from frozen bladder tissue homogenates (200 ug total protein) of saline- or cyclophosphamide-treated rats with CXCR4 antibody (5 ug, Sigma C3116) and Protein G agarose beads; denaturing, reducing SDS electrophoresis; MIF Western blot with biotinylated anti-MIF antibody. For orientation: A western blot detects proteins with antibodies after separation by electrophoresis.

These are yes or no findings as the source states them, for the method shown. In cells and extracts the contact can be indirect. Some results given as binding are weak or reduced against the parent protein; the word gives no strength.

On to “Macrophage migration inhibitory factor (from UniProt P30904 1-115)”, for which the binding result is recorded as “binds”.
